Taken from: PubChem BioAssay AID652272 (Drosophila RNAi Screening Center, 2013)
The screen tested about 21,000 reagents; this is an unselected part of those that have a named target and a result. In the full data, 503 (2.4%) got an active call. 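Raw plate light values, not normalised; calls rest on replicate z-scores that were not deposited; hits include reporter decreases as well as increases.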 Entries without a mark were called inactive. Names joined by + are all predicted targets of the reagent. The record does not give: the amount of reagent, the time to read-out.

Aim: 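Genes whose knock-down decreases or increases Hedgehog reporter output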 (primary screen)
Cells: Drosophila clone 8 (Cl8) cells
Knock-down reagent: long dsRNA against Drosophila genes
Read-out: 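Firefly light from a Hedgehog-responsive ptc promoter reporter and Renilla reference light, both read on a plate reader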
Scale: firefly Hh reporter signal: higher = more ptc reporter light; Renilla reference signal: higher = more Renilla control light
Active means: 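Hit when the z-score averaged over two replicates is under -2 or over +3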
Calls: active = hit: reporter lowered or raised; inactive = not a hit

With Vamp7 [DRSC06599], how do the results read?
firefly Hh reporter signal, replicate 1: 1.20e5; firefly Hh reporter signal, replicate 2: 47264; Renilla reference signal, replicate 1: 2282; Renilla reference signal, replicate 2: 3153

With CG9673 [DRSC20202], how do the results read?
firefly Hh reporter signal, replicate 1: 71581; firefly Hh reporter signal, replicate 2: 2.99e5; Renilla reference signal, replicate 1: 1705; Renilla reference signal, replicate 2: 12390

With CG7149 [DRSC03016], what was measured?
firefly Hh reporter signal, replicate 1: 1.89e5; firefly Hh reporter signal, replicate 2: 71696; Renilla reference signal, replicate 1: 6389; Renilla reference signal, replicate 2: 3344

Which result is listed for CG34136 [DRSC01833]?
firefly Hh reporter signal, replicate 1: 2.34e5; firefly Hh reporter signal, replicate 2: 3.17e5; Renilla reference signal, replicate 1: 6064; Renilla reference signal, replicate 2: 15531

For Spn [DRSC07986], what does the deposit list?
firefly Hh reporter signal, replicate 1: 86681; firefly Hh reporter signal, replicate 2: 1.51e5; Renilla reference signal, replicate 1: 2485; Renilla reference signal, replicate 2: 6024

What is on record for Spn [DRSC08490]?
firefly Hh reporter signal, replicate 1: 88525; firefly Hh reporter signal, replicate 2: 70059; Renilla reference signal, replicate 1: 4986; Renilla reference signal, replicate 2: 3146

For Spn [DRSC08491], what was measured?
firefly Hh reporter signal, replicate 1: 61540; firefly Hh reporter signal, replicate 2: 32049; Renilla reference signal, replicate 1: 1952; Renilla reference signal, replicate 2: 2982

What did the screen give for Fib [DRSC04614]?
firefly Hh reporter signal, replicate 1: 67937; firefly Hh reporter signal, replicate 2: 57193; Renilla reference signal, replicate 1: 1675; Renilla reference signal, replicate 2: 6557

Which result is listed for nur [DRSC01342]?
firefly Hh reporter signal, replicate 1: 4.04e5; firefly Hh reporter signal, replicate 2: 2.49e5; Renilla reference signal, replicate 1: 19105; Renilla reference signal, replicate 2: 10756

Entries listed so far whose gene name starts with C or c (3):
CG9673 [DRSC20202]: firefly Hh reporter signal, replicate 1 = 71581; firefly Hh reporter signal, replicate 2 = 2.99e5; Renilla reference signal, replicate 1 = 1705; Renilla reference signal, replicate 2 = 12390
CG7149 [DRSC03016]: firefly Hh reporter signal, replicate 1 = 1.89e5; firefly Hh reporter signal, replicate 2 = 71696; Renilla reference signal, replicate 1 = 6389; Renilla reference signal, replicate 2 = 3344
CG34136 [DRSC01833]: firefly Hh reporter signal, replicate 1 = 2.34e5; firefly Hh reporter signal, replicate 2 = 3.17e5; Renilla reference signal, replicate 1 = 6064; Renilla reference signal, replicate 2 = 15531

Next reagents follow:
With CG32262 [DRSC08165], what was measured?
firefly Hh reporter signal, replicate 1: 98691; firefly Hh reporter signal, replicate 2: 1.09e5; Renilla reference signal, replicate 1: 5111; Renilla reference signal, replicate 2: 4484

Which result is listed for row [DRSC07076]?
firefly Hh reporter signal, replicate 1: 49049; firefly Hh reporter signal, replicate 2: 72434; Renilla reference signal, replicate 1: 3180; Renilla reference signal, replicate 2: 3960

What did the screen give for row [DRSC07077]?
firefly Hh reporter signal, replicate 1: 82673; firefly Hh reporter signal, replicate 2: 71536; Renilla reference signal, replicate 1: 2226; Renilla reference signal, replicate 2: 4124

What did the screen give for Inx6 [DRSC20579]?
firefly Hh reporter signal, replicate 1: 68549; firefly Hh reporter signal, replicate 2: 1.41e5; Renilla reference signal, replicate 1: 985; Renilla reference signal, replicate 2: 6040

How did the screen score CG15916 [DRSC19740]?
firefly Hh reporter signal, replicate 1: 80812; firefly Hh reporter signal, replicate 2: 1.59e5; Renilla reference signal, replicate 1: 2547; Renilla reference signal, replicate 2: 6610

For His2B:CG33870 + His2B:CG33868 + His2B:CG33882 + 21 more [DRSC03757], what does the deposit list?
firefly Hh reporter signal, replicate 1: 22613; firefly Hh reporter signal, replicate 2: 14324; Renilla reference signal, replicate 1: 681; Renilla reference signal, replicate 2: 1287

For CG11382 [DRSC18624], how do the results read?
firefly Hh reporter signal, replicate 1: 77229; firefly Hh reporter signal, replicate 2: 1.85e5; Renilla reference signal, replicate 1: 2356; Renilla reference signal, replicate 2: 7312

For Elba3 [DRSC00469], what was measured?
firefly Hh reporter signal, replicate 1: 1.17e5; firefly Hh reporter signal, replicate 2: 1.27e5; Renilla reference signal, replicate 1: 4736; Renilla reference signal, replicate 2: 5051

What did the screen give for CG14346 [DRSC00376]?
firefly Hh reporter signal, replicate 1: 1.15e5; firefly Hh reporter signal, replicate 2: 74136; Renilla reference signal, replicate 1: 2711; Renilla reference signal, replicate 2: 2240

For CG17528 [DRSC07761], how do the results read?
firefly Hh reporter signal, replicate 1: 74810; firefly Hh reporter signal, replicate 2: 41496; Renilla reference signal, replicate 1: 1952; Renilla reference signal, replicate 2: 2816

Which result is listed for Septin2 [DRSC16855]?
firefly Hh reporter signal, replicate 1: 1.11e5; firefly Hh reporter signal, replicate 2: 1.21e5; Renilla reference signal, replicate 1: 4576; Renilla reference signal, replicate 2: 4327

With CG17030 [DRSC08503], what was measured?
firefly Hh reporter signal, replicate 1: 50781; firefly Hh reporter signal, replicate 2: 69403; Renilla reference signal, replicate 1: 5338; Renilla reference signal, replicate 2: 4631
